The campaign covered roughly 340,000 compounds. About 170 (0.05%) were called active. This list was built around the results that the source calls inconclusive (neither active nor inactive); the mix of calls is not that of the screen. Calls follow the shape of the dose curve; as a rule, active = well fitted inhibition curve with a large enough effect in the signal ratio, with a control signal flat (not every such curve was filed as active); inconclusive = small, poorly fitted or top-dose-only effect, or effect the other way, or a change in a side signal; inactive = flat fitted curve, though single readings scatter; the % refers to the signal ratio. Potencies of inconclusive entries are doubtful fits and often do not repeat.
Test: qHTS Assay to Find Inhibitors of Chronic Active B-Cell Receptor Signaling;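 as to activity change, negative = inhibition: plate controls were basal doxycycline-induced cells for no effect and cells given 10 µM MG132 for full effect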
Details: ABC-DLBCL IkBa-CBG/CBR reporter, luminescence ratio (green luciferase fused to IkBa over red control in TMD8 lymphoma cells), 4 h; activity change, negative = inhibition: at 46.1 µM (top of the series) unless noted
How it was run: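 Concentration-response series (up to 46 uM) were applied to TMD8 dual-reporter cells for 4 h at 37C with doxycycline. Green/red ratio, after filter-overlap correction, defined %Activity; red signal alone was normalised to basal cells and zero luminescence.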
Potency is read from the fitted curve at half-maximal effect.

Structure (SMILES)	activity change, negative = inhibition	Potency
CCN(CC)CCCNc1nc(-n2nc(C)cc2C)nc2sc3c(c12)CC(C)(C)OC3	inconclusive: -21.6%	
O=C(CN1CCN(c2ccccc2)CC1)Nc1c(C(=O)C2CC2)oc2ccccc12	inconclusive: 12.1%	
COc1cccc(NC(=O)CN(C)C(=O)c2ccc(-c3ccccc3Cl)o2)c1		inconclusive: 20 µM [falling, partial curve, poor fit]
Nn1c(Cc2cccc3ccccc23)n[nH]c1=S		inconclusive: 35.5 µM [falling, single point]
Cc1cccc2sc(N(CCCN(C)C)C(=O)c3ccc(C(=O)c4ccccc4)cc3)nc12	inconclusive: 5.64%	
Cc1cc(C)c(/C=N/NC(=O)c2nnn(-c3nonc3N)c2CN2CCC(C)CC2)c(C)c1	inconclusive: 18.6%	
C=CCc1ccc(OCc2ccc(C(=O)Nc3ccc(NC(C)=O)cc3)o2)c(OC)c1		inconclusive: 11.2 µM [falling, partial curve, poor fit]
CCCC1(c2ccccc2)NC(=O)N(CC(=O)c2[nH]c(C)c(C(=O)OCC)c2C)C1=O (stereo not given)	inconclusive: 2.47%	
Cc1cnc(NC(=O)CC2CCCC2)s1	inconclusive: 6.41%	
CC(=O)N/C(=N\c1nc(C)cc(C)n1)Nc1ccccc1Cl	inconclusive: 5.82%	
CCCOc1ccc(C(=O)NNC(=S)NC(=O)c2cccs2)cc1		inconclusive: 11.2 µM [falling, partial curve, poor fit]
Cc1ccc(Nc2cc(C)c3c(O)cccc3n2)cc1C	inconclusive: 0.168%	
COc1ccccc1-c1n[nH]c(=S)n1Cc1ccccc1	inactive: -1.11%	
CN=Cc1nc(-c2ccccc2)oc1O	inconclusive: 15.8%	
CCc1ccccc1OCCCN1CCCC1	inactive: 2.62%	
CCC(=O)N/C(=N/c1nc(C)cc(C)n1)Nc1cccc(OC)c1		inconclusive: 29.1 µM [falling, single point]
COc1ccccc1NS(=O)(=O)c1ccc(C(=O)N2CCCC(C(F)(F)F)C2)cc1 (stereo not given)	inconclusive: -6.48%	
CCOC(=O)[C@H]1[C@H]2COc3ccc(OC)cc3[C@@H]2N2C(=O)c3cc(F)c(F)cc3NC(=O)[C@@]12C	inactive: -1.66%	
CCOC(=O)C(C)/C(C)=N/NC(=O)c1cc2ccccc2cc1O (stereo not given)		inconclusive: 18.4 µM [falling, single point]
O=C(CCCCCNC(=O)c1ccccc1)N=Nc1c(O)[nH]c2c(Br)cc(Br)cc12	inconclusive: 1.62%	
CN1CCN(S(=O)(=O)c2ccc(NC(=O)c3ccc(Br)s3)cc2)CC1	inactive: -14%	
O=C(Cn1cnc2cc([N+](=O)[O-])ccc2c1=O)Nc1cccc(S(=O)(=O)N2CCOCC2)c1	inconclusive: -1.38%	
Oc1ccc(/C=N/NC(=S)N2CCOCC2)cc1		inconclusive: 5.01 µM [cytotoxic, single point]
COc1ccccc1C(=O)N/N=C/c1ccc(Cl)s1		inconclusive: 23.1 µM [falling, single point]
O=C(Nc1ccccc1)N1CCn2c(nc3ccccc32)C1	inconclusive: -8.12%	

As entered above:
COc1ccccc1-c1n[nH]c(=S)n1Cc1ccccc1 | activity change, negative = inhibition: inactive: -1.11%
COc1ccccc1C(=O)N/N=C/c1ccc(Cl)s1 | Potency: inconclusive: 23.1 µM [falling, single point]

(further entries)

Structure (SMILES)	activity change, negative = inhibition	Potency
COc1ccc(Oc2ccc(/C=C/C(=O)c3cccc(OC)c3)cc2[N+](=O)[O-])cc1	inactive: -4.51%	
O=C(Nc1ccc(Cl)cc1)OCCn1nnnc1C(c1ccccc1)N1CCOCC1 (stereo not given)	inconclusive: 16.7%	
CC(C)(CO)NCc1ccc(Br)cc1	inactive: -11%	
Cn1nnc(NC(=O)COc2ccc(C3CCCCC3)cc2)n1		inconclusive: 8.2 µM [rising, partial curve, poor fit]
COc1cc(C(=O)OCCNC(=O)c2ccccc2)cc(OC)c1OC	inconclusive: -6.98%	
COc1ccc(C2(CNC(=O)c3cccc([N+](=O)[O-])c3)CCCCC2)cc1OC	inactive: -4.18%	
Cc1cc(C)nc(SCC(=O)N/N=C/c2cccn2-c2cccc(C(F)(F)F)c2)n1	inconclusive: 8.27%	
CN(C)C(=O)CN(c1ccc(F)c(Cl)c1)S(C)(=O)=O	inconclusive: 14.3%	
CCCCn1c(-c2csc(CCC)c2)n[nH]c1=S		inconclusive: 0.316 µM [falling, full curve, poor fit]
CC(=O)Nc1ccc(/C(C)=N/Nc2nc(Nc3ccccc3)nc(N3CCOCC3)n2)cc1		inconclusive: 15.8 µM [falling, partial curve]
CC(C)CNC(=O)c1nn(Cc2ccccc2)c(=O)c2ccccc12	inconclusive: 6.81%	
CCCc1nnc(NC(=O)c2nc(S(=O)(=O)Cc3cccc(C)c3)ncc2Cl)s1	inconclusive: 15.3%	
c1ccc(-n2ncc3c(N4CCCC4)ncnc32)cc1		inconclusive: 12.6 µM [falling, partial curve, poor fit]
CCOc1ccc(NC(=O)CN2CCN(C(=O)c3ccco3)CC2)cc1S(=O)(=O)N1CCCC1	inconclusive: 2.25%	
Cn1c(=O)cc(C(=O)N/N=C/c2ccc(F)cc2)[nH]c1=O		inconclusive: 31.6 µM [falling, single point]
CCCCc1ccc(NC(=O)C(=O)NCCN2CCN(Cc3ccc([N+](=O)[O-])cc3)CC2)cc1	inactive: -3.17%	
COCc1nnc(NC(=O)c2ccccc2[N+](=O)[O-])s1	inconclusive: 1.33%	
CCn1c(SCC(=O)c2[nH]c(C)c(C(C)=O)c2C)nnc1-c1ccccc1	inactive: -0.59%	
COc1ccc(-n2c(SCC(N)=O)nnc2-c2ccccc2F)cc1	inconclusive: 11.4%	
Cc1c(C(=O)Nc2ccccc2F)sc2ncnc(N(C)C3CCCCC3)c12	inactive: 19.8%	
C#CC(CC)(CC)NC(=S)Nc1cccc(C(C)=O)c1	inconclusive: 0.63%	
COc1ccc(N2C(=O)CC(NNC(=O)c3cc(C)oc3C)C2=O)cc1 (stereo not given)	inconclusive: -7.87%	
CCOC(=O)C1=C(C)NC2=C(C(=O)C(C(=O)OCC)C(c3ccccc3OC)C2)C1c1ccccn1 (stereo not given)	inconclusive: 5.18%	
Cc1ccc(NC(=O)c2cc(C)n(-c3cccc(C)c3)c2C)cc1		inconclusive: 16.4 µM [falling, partial curve, poor fit]
COC(=O)c1ccccc1NC(=O)N1c2ccccc2CC1C (stereo not given)	inconclusive: 8.5%	

— PubChem BioAssay AID493014 (National Center for Advancing Translational Sciences (NCATS), 2011)
